Data as given in PubChem BioAssay AID602196 (INSERM, 2012).
The whole screen tested about 23,000 reagents; below is a random part of them. Over the whole deposit, 455 (2%) were called active. 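Active includes both protection and sensitisation; some change values fall well beyond the stated -50 to +50 range.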 A number with no mark means an inactive call. Not all columns of the deposit are shown. The record does not give: the amount of reagent.

- Test: 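Genes whose knock-down alters cisplatin killing of lung cancer cells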
- Cells: human A549 lung cancer cells
- Knock-down reagent: siRNA pair against human genes
- Duration: 48 h transfection before cisplatin; time from cisplatin to read-out not stated
- Conditions: cisplatin at a dose killing half of control-siRNA cells; exact dose and duration not given
- Measured: 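Cisplatin cell death as a shift from the 50% death seen with control siRNA; siRNAs toxic or growth-blocking alone scored 0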
- Reading the numbers: two-siRNA summed score (-2 to +2): higher = both siRNAs protect from cisplatin killing; -2 means both sensitise; mean protection from cisplatin (shift in death): higher = protection from cisplatin killing
- Rule for the call: 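Each siRNA scores 0 if harmful alone by LDH or WST-1, otherwise +1 if it reduces and -1 if it increases cisplatin killing; a gene is active when both siRNAs agree (sum +2 or -2)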
- Meaning of the calls: active = both siRNAs shift cisplatin killing the same way; inactive = no consistent shift, or siRNA harmful alone

Gene | two-siRNA summed score (-2 to +2) | mean protection from cisplatin (shift in death) (%)
COLEC10 | 0 | 0.3
SGSM3 | 0 | 24.3
LOC390577 | 1 | 9.7
PTGES3 | 0 | -2.3
RAB38 | -1 | -4.1
SUPT20HL1 | 0 | 8.8
MME | 0 | 1.8
INTS6L | 0 | 4.5
PLPPR3 | 0 | -3.4
DMPK | -1 | -3
AQP1 | -1 | -11.5
LOC253724 | 0 | 3.8
OR5M9 | 0 | 16.7
EPB41L4A | 0 | -2.3
LOC440863 | 0 | 10.8
CENPE | 0 | 2.1
SLC35B3 | 0 | 5.2
RAB40C | -1 | -18.2
LOC342371 | 1 | 16.9
TRAF2 | 0 | -5.3
PDZK1 | 1 | 12.1
MZF1 | 0 | -1.2
GTF3C2 | 0 | -8.4
CTBS | 0 | -3.4
LAMTOR5 | 1 | 17.2
LOC441620 | 0 | 0
PRXL2A | 0 | 4.2
CASP1P2 | 0 | 10.3
LOC441657 | 0 | 5.8
PRELID2 | 0 | 9.4
LINC00635 | 0 | 8.2
LOC388199 | 1 | 20.7
UQCC1 | 0 | 7.5
VEGFD | 0 | 17.6
CNKSR3 | 0 | 1.3
TMEM62 | 0 | -7.8
ZNF136 | 0 | 7.9
LOC389447 | 0 | 1
PRMT7 | 0 | -5.7
SPZ1 | 0 | 6.7
CYP2B7P | -1 | -9.1
LOC440783 | 0 | 20.8
CPE | 1 | -1.7
INHBB | 0 | -26.6
FOXI2 | 0 | 7.9
OR4B1 | 0 | 12.5
CITED2 | 0 | 0
TP53AIP1 | 0 | 4.6
LOC339793 | 0 | 1.1
HMOX2 | 1 | 16.9
MYL5 | 0 | 7.5
CSRP1 | 0 | 3.4
ZNF513 | 0 | 8.9
KIAA1201 | 1 | 6.3
BMP2K | 1 | 6.8
ETFRF1 | 0 | -0.6
C8orf33 | 0 | -5
